# Laboratory results: PubChem BioAssay AID504764 (Drosophila RNAi Screening Center, 2011)
# Aim: 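Knock-downs that raise or lower a Notch target reporter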 (primary screen)
# System: Drosophila Kc167 cells
# Knock-down reagent: long dsRNA against Drosophila genes
# Timing: about 5 days (4 days dsRNA, then 24 h after transfection)
# Challenge: transfection of constitutively active membrane-tethered Notch lacking the extracellular domain, read 24 h later
# Read-out: 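Firefly luciferase from an E(spl)m3 reporter with active Notch, plus control-promoter and uninduced reporter wells for normalisation; unnormalised counts, duplicate wells a and b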
# Scale: induced reporter light, run 1, well a and induced reporter light, run 1, well b: higher = more light from the Notch target reporter with active Notch; control promoter light, run 1, well a and control promoter light, run 1, well b: higher = more light from the viral control promoter (cell number, transfection, viability); uninduced reporter light, run 1, well a: higher = more light from the Notch target reporter without active Notch
# Hit rule: 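Wells with low control signal or poorly matching duplicates excluded; duplicates averaged; per source plate, z beyond ±2 for induced/control log2 ratio or beyond ±1.8 for induced/uninduced marks a hit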
# Meaning of the calls: active = modifier hit (raised or lowered Notch signal); inactive = not a hit
# In all, the deposit lists about 22,000 reagents; shown is a random part of those with a known target gene and a result. Over the whole deposit, 403 (1.9%) are marked active. 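Unnormalised raw counts per well; ratio z-scores behind the hit calls and whether each hit raises or lowers signal are not deposited.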 Reagents against one gene are numbered here. A plus sign joins genes that one reagent is predicted to hit. Reagent sequences are not shown. Not stated in the record: the amount of reagent.
Target gene,reagent,"induced reporter light, run 1, well a","induced reporter light, run 1, well b","control promoter light, run 1, well a","control promoter light, run 1, well b","uninduced reporter light, run 1, well a",activity call
ana1 (GeneID 42927),1,16020,16490,23770,20162,1325,inactive
CG13300 (GeneID 38730),1,53325,38045,21870,20445,4810,inactive
GC1 (GeneID 41448),1,66875,59885,83215,65720,4530,inactive
Cnot4 (GeneID 34416),1,1.18e5,1.52e5,69230,98195,16445,inactive
Cnot4 (GeneID 34416),2,1.28e5,1.44e5,60660,91390,15555,inactive
Jhe (GeneID 36780),1,39130,26760,33885,30980,3930,inactive
CG42747 (GeneID 38732),1,90790,1.00e5,1.24e5,83735,5292,inactive
CG42747 (GeneID 38732),2,1.74e5,1.86e5,3.25e5,3.20e5,8895,active
Spn77Bb + Spn77Bc,1,1.12e5,94185,79745,76590,7285,inactive
Spn77Bb + Spn77Bc,2,1.02e5,1.10e5,91295,87010,8195,inactive
CG34451 (GeneID 5740612),1,1.91e5,1.97e5,3.04e5,3.18e5,20300,inactive
CG34451 (GeneID 5740612),2,1.81e5,2.20e5,2.29e5,2.20e5,19142,inactive
CG18788 (GeneID 59164),1,1.28e5,1.44e5,1.56e5,1.87e5,14045,inactive
CG14718 (GeneID 41413),1,1.49e5,1.20e5,87785,77490,9175,inactive
Ddx56 (GeneID 33118),1,72210,90475,79600,1.13e5,8770,inactive
CG3184 (GeneID 31608),1,1.62e5,1.66e5,2.23e5,2.07e5,14190,inactive
Mzt1 (GeneID 10178948),1,2.04e5,1.83e5,2.11e5,2.47e5,14260,inactive
CG14762 (GeneID 35768),1,50365,69985,71570,78255,2988,inactive
CG14762 (GeneID 35768),2,1.94e5,1.72e5,2.15e5,2.08e5,16550,inactive
Br140 (GeneID 35648),1,1.30e5,1.17e5,1.02e5,1.27e5,10280,inactive
CG13043 (GeneID 39796),1,1.19e5,1.42e5,1.52e5,1.29e5,8800,inactive
CG12502 (GeneID 38102),1,91275,97840,1.52e5,1.96e5,7380,inactive
halo (GeneID 33334),1,1.10e5,95745,83270,64935,8510,inactive
CG5004 (GeneID 32698),1,1.01e5,1.08e5,1.15e5,1.14e5,11015,inactive
CG5004 (GeneID 32698),2,78105,68695,1.10e5,73020,8938,inactive
CG5004 (GeneID 32698),3,19835,15805,8225,5660,7115,inactive
CG9213 (GeneID 32490),1,1.05e5,1.12e5,1.11e5,82055,6420,inactive
Aps (GeneID 39226),1,2.05e5,1.78e5,2.58e5,2.20e5,8735,inactive
tbrd-3 (GeneID 246604),1,1.54e5,1.49e5,1.49e5,1.56e5,11690,inactive
CG15456 (GeneID 50123),1,87295,80510,67505,1.00e5,7420,inactive
Mnr (GeneID 33098),1,83630,76120,84790,1.10e5,9905,inactive
Mnr (GeneID 33098),2,72320,1.01e5,74165,1.17e5,9020,inactive
p (GeneID 41025),1,77080,88475,75870,52255,7910,inactive
Gmppb (GeneID 40599),1,1.39e5,1.27e5,1.19e5,95110,10765,inactive

Looked up above:
Entry for Ddx56 (GeneID 33118) under “control promoter light, run 1, well b”: 1.13e5
Jhe (GeneID 36780), activity call = inactive
Value for CG42747 (GeneID 38732) #1 under “induced reporter light, run 1, well b”: 1.00e5
Gmppb (GeneID 40599), uninduced reporter light, run 1, well a = 10765
